For experiment [1], the target named is T1, Recombinant human integrin αvβ6 (human, UniProt P06756 31-992; P18564 22-707).
T1 construct: Bought soluble heterodimer; also called alpha-v-beta-6; avb6
Put plainly: flow cytometry, 10 nM integrin αvβ6, relative to R02. Background: A flow cytometer gives signals particle by particle.

The chains behind the UniProt entries cited, without tags or fusion partners. Where a name states a change or a piece, a line headed by the entry shows the natural chain unless it says otherwise.
UniProt P06756: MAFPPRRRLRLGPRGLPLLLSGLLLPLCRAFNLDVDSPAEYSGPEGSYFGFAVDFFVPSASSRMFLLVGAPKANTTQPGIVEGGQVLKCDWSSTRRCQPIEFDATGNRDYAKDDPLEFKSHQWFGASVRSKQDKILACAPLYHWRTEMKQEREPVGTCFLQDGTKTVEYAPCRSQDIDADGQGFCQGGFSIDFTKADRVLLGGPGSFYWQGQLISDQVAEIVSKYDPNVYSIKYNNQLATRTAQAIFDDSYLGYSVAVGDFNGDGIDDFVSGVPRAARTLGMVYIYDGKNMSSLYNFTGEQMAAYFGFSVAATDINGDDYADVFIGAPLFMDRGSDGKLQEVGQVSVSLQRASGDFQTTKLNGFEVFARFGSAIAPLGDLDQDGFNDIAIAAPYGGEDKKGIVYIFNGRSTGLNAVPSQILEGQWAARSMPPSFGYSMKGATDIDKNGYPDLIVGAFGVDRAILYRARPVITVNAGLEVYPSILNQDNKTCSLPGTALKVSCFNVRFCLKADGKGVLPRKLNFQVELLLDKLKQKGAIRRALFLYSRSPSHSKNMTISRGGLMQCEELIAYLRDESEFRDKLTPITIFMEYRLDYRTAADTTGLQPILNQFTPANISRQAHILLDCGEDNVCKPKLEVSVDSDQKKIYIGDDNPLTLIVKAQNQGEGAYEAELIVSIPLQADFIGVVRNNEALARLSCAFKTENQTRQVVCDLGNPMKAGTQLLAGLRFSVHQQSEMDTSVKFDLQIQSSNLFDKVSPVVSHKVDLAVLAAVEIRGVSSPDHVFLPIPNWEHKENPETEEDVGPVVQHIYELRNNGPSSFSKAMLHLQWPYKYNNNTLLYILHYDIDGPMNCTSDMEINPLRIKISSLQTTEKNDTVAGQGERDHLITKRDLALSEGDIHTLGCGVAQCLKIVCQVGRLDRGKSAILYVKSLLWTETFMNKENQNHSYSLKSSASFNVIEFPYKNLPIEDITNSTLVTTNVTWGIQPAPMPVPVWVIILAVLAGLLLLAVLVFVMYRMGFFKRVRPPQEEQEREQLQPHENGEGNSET
UniProt P18564: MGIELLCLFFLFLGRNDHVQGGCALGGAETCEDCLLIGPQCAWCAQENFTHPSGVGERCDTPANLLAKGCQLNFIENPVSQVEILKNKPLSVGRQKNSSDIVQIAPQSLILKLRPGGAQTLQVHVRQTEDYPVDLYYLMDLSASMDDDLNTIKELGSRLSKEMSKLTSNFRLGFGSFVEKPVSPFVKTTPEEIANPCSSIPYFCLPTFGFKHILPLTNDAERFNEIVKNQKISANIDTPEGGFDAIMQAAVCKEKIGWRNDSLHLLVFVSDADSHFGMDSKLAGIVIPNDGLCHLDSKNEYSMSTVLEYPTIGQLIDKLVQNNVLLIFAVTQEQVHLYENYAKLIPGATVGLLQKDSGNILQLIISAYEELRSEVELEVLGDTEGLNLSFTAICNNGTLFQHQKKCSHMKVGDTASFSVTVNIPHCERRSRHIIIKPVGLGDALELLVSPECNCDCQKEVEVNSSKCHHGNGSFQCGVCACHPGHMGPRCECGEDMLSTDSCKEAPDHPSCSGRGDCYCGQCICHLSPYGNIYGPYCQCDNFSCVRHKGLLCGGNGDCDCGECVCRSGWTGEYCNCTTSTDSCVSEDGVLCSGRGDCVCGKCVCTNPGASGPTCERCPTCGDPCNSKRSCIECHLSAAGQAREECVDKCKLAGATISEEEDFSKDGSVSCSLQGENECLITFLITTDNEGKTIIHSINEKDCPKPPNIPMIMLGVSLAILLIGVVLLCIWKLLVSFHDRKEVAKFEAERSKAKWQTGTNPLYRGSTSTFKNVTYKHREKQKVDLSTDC

The target of experiment [2] is T2, Native integrin αvβ6 on cells (BxPC-3, A431) (human) (UniProt P06756+P18564). Briefly: cell uptake assay, A431 and BxPC-3 cells (FIG. 5).
In experiment [3] the target is T2, Native integrin αvβ6 on cells (BxPC-3, A431) (human). Put plainly: cell uptake assay with radiolabeled peptide (FIG. 5).
The target is the same in experiment [4]. Put plainly: cell capture on peptide-coated wells, crystal violet (FIG. 2C).
Experiment [5] deals with T1, Recombinant human integrin αvβ6. Briefly: protein capture on neutravidin wells coated with biotinylated peptide, 10 nM integrin (FIG. 2A).
The target of experiment [6] is Recombinant human integrin αvβ6 (human) (UniProt P06756). Put plainly: flow cytometry, 10 nM integrin αvβ6, relative to R02.
The target is the same in experiment [7]. Briefly: plate competition against immobilised biotinylated A20 (FIG. 2B).

No constants are given. Whether binding was seen depends on the method and setting. Some entries that bind do so weakly or less than the wild type.

In the case of GCRSLARTDLDHLRGRCEEDSDCLAECICEENGFCG [E02], the binding result in experiment [1] is recorded as “binds”.

On to GCRSLARTDLDHLRGRCSSDSDCSAECICSENGFCG [S32], for which the binding result in experiment [1] is “binds”.

As to GCRSLARTDLDHLRGRCSSDSDCSAECICLENGFCG [S12], the binding entry in experiment [1] is reported as “binds”.

As to GCRSLARTDLDHLRDRCSSDSDCLAECICLENGFCG (DOTA conjugated through the N-terminus amine, radiolabeled with 64Cu) [64Cu-DOTA-S02], the binding result in experiment [2] and in experiment [3] was “binds” each time.

For the molecule GCRSLARTDLDHLRDRCSSDSDCLAECICLENGFCG (PEO4-Biotin coupled to the peptide (its sole primary amine is the N-terminus)) [Biotinylated S02], the binding entry in experiment [4] and in experiment [5] was “binds” throughout.

Consider GCRSLARTDLDHLRGRCEEDSDCLAECICEENGFCG (DOTA conjugated through the N-terminus amine, radiolabeled with 64Cu) [64Cu-DOTA-E02], for which the binding result in experiment [2] and in experiment [3] was “binds” each time.

As for GCRSLARTDLDHLRDRCSSDSDCLAECICLENGFCG [S02], the binding entry in experiment [6] and in experiment [7] was “binds” throughout.

Consider GCRSLARTDLDHLRGRCSSDSDCLAECICSENGFCG [S22], for which, in experiment [1], the binding entry is given as “binds”.
